Results on ten targets are retold here after the supplement of paper PMC12819154, “High-throughput peptide-centric local stability assay extends protein–ligand identification to membrane proteins, tissues and bacteria” (Nature Structural & Molecular Biology, 2025).

The chains behind the UniProt entries cited, without tags or fusion partners. Where a name states a change or a piece, a line headed by the entry shows the natural chain unless it says otherwise.
UniProt O15234, whole entry: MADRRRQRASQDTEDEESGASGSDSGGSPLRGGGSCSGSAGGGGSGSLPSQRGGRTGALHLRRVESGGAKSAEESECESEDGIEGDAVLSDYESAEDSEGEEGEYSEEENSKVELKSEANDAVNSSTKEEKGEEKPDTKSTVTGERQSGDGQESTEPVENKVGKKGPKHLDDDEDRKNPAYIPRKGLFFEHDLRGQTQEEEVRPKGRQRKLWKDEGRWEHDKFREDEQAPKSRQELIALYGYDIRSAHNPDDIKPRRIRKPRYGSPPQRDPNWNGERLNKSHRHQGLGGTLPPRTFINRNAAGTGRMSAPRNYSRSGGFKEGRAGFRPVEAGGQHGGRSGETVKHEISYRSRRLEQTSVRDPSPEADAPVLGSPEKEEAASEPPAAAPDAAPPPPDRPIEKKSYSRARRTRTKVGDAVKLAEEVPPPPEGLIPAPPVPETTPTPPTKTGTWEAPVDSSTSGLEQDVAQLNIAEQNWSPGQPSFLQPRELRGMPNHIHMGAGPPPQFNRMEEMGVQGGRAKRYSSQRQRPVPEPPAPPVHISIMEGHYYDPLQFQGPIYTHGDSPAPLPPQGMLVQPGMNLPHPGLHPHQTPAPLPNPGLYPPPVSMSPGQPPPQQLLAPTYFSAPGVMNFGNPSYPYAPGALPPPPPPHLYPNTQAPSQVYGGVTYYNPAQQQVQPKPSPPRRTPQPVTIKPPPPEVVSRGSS
UniProt O14578, whole entry: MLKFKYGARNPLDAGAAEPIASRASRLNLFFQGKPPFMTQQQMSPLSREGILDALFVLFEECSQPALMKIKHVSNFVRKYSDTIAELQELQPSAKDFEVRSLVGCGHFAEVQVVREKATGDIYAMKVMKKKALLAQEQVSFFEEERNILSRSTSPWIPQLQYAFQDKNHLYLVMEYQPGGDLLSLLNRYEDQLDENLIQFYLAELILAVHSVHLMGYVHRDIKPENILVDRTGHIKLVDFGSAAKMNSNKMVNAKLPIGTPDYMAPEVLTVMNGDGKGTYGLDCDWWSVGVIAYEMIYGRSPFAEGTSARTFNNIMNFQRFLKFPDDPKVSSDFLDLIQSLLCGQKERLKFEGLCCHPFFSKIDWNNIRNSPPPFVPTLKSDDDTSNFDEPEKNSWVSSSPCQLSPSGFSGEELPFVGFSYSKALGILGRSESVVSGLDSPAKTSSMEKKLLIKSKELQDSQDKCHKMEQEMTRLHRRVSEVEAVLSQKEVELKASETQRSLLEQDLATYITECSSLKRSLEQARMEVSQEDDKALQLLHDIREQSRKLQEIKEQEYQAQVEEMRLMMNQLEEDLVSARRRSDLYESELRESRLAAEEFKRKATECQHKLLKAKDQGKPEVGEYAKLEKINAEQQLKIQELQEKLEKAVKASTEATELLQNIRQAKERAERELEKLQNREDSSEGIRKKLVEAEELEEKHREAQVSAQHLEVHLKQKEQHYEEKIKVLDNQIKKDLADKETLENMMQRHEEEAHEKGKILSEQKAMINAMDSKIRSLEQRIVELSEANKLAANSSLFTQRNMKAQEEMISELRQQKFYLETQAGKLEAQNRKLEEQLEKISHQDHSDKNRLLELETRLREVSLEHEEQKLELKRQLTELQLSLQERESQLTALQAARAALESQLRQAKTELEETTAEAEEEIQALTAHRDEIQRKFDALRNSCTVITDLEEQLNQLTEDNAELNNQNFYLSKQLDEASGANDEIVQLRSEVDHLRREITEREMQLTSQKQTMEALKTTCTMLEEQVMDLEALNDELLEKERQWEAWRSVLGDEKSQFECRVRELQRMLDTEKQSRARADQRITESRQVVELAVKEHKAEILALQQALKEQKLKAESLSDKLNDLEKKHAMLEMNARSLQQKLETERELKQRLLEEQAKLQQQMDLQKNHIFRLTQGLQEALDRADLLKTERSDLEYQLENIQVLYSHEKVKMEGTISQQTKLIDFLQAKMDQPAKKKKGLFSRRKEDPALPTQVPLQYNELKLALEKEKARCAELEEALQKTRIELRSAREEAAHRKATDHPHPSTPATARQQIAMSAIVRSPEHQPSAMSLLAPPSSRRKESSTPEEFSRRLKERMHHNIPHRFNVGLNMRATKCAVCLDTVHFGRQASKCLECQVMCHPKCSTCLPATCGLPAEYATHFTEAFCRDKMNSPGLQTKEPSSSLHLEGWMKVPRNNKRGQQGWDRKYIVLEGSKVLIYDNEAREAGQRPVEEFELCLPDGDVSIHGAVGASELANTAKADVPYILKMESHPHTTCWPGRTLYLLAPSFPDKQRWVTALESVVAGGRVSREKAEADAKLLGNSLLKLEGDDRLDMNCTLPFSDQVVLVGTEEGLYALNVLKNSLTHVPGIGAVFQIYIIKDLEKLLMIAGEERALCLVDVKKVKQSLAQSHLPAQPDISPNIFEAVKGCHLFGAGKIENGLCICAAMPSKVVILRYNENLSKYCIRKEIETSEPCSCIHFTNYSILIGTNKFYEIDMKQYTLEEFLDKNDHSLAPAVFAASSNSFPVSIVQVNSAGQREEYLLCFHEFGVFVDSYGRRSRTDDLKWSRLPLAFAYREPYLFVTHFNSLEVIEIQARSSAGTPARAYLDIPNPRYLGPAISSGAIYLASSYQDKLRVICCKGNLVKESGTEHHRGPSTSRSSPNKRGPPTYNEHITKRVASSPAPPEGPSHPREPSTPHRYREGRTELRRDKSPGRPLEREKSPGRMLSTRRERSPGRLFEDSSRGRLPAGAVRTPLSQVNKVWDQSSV
UniProt O14744, whole entry: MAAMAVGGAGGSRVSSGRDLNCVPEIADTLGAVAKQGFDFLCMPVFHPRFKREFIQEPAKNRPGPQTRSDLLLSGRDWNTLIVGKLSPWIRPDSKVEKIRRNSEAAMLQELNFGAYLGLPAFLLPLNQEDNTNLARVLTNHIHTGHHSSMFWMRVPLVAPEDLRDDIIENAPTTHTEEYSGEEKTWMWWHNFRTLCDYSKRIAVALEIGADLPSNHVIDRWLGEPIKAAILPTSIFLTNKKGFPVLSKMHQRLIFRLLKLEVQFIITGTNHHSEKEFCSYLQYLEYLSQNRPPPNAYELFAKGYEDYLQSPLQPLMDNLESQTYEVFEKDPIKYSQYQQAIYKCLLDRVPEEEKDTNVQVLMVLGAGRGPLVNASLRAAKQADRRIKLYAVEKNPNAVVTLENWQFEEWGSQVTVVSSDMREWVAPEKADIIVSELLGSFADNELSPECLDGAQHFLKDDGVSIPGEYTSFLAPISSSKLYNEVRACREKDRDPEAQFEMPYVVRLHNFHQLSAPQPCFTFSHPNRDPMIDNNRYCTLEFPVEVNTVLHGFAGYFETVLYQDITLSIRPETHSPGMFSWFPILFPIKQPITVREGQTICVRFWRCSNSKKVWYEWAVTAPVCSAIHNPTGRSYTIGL
UniProt O00571: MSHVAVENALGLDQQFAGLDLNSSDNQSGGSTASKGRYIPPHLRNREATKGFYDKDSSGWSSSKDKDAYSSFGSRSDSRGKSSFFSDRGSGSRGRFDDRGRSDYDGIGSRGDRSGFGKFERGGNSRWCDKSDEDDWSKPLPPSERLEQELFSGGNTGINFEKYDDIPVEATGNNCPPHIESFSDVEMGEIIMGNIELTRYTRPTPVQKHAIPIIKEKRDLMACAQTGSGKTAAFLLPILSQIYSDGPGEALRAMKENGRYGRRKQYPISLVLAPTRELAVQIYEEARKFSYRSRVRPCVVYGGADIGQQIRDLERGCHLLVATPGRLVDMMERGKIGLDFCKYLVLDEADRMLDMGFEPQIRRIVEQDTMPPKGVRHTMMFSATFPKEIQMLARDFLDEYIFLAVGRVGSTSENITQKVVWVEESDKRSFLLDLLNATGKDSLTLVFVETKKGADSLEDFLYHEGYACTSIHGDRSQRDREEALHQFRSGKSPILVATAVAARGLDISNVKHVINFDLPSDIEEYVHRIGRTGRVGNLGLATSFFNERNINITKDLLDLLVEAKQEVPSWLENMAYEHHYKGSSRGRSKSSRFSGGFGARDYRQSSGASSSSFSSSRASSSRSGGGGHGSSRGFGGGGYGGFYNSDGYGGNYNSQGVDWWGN
UniProt O00487, whole entry: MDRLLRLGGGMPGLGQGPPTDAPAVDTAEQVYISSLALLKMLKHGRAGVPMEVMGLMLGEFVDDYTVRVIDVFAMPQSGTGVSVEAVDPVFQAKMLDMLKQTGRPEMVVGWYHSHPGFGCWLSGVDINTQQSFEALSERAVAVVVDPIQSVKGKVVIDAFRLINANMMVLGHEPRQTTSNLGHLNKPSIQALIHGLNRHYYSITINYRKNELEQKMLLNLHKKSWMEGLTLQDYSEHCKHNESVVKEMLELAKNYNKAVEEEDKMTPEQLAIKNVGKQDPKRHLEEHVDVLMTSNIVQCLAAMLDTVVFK
UniProt O00534: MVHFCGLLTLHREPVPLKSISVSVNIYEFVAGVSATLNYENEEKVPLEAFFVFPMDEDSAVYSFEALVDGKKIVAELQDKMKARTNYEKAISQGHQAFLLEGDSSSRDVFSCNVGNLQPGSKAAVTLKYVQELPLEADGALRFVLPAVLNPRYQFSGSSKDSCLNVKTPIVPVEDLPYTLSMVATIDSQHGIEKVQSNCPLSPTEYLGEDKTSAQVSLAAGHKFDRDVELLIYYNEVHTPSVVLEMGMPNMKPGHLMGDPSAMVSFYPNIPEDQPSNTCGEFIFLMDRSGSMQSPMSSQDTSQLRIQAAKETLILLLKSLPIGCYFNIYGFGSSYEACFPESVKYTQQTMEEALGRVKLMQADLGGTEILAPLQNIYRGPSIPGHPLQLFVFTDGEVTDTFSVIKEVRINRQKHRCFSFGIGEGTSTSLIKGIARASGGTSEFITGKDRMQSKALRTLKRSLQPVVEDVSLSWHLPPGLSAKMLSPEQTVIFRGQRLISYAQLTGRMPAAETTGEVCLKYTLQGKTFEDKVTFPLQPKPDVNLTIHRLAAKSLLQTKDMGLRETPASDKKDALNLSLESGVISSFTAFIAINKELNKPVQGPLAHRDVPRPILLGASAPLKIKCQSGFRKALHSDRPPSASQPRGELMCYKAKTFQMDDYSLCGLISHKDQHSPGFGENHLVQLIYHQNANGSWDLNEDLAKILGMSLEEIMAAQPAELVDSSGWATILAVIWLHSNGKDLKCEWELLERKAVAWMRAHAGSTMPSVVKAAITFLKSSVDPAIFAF
UniProt O14802: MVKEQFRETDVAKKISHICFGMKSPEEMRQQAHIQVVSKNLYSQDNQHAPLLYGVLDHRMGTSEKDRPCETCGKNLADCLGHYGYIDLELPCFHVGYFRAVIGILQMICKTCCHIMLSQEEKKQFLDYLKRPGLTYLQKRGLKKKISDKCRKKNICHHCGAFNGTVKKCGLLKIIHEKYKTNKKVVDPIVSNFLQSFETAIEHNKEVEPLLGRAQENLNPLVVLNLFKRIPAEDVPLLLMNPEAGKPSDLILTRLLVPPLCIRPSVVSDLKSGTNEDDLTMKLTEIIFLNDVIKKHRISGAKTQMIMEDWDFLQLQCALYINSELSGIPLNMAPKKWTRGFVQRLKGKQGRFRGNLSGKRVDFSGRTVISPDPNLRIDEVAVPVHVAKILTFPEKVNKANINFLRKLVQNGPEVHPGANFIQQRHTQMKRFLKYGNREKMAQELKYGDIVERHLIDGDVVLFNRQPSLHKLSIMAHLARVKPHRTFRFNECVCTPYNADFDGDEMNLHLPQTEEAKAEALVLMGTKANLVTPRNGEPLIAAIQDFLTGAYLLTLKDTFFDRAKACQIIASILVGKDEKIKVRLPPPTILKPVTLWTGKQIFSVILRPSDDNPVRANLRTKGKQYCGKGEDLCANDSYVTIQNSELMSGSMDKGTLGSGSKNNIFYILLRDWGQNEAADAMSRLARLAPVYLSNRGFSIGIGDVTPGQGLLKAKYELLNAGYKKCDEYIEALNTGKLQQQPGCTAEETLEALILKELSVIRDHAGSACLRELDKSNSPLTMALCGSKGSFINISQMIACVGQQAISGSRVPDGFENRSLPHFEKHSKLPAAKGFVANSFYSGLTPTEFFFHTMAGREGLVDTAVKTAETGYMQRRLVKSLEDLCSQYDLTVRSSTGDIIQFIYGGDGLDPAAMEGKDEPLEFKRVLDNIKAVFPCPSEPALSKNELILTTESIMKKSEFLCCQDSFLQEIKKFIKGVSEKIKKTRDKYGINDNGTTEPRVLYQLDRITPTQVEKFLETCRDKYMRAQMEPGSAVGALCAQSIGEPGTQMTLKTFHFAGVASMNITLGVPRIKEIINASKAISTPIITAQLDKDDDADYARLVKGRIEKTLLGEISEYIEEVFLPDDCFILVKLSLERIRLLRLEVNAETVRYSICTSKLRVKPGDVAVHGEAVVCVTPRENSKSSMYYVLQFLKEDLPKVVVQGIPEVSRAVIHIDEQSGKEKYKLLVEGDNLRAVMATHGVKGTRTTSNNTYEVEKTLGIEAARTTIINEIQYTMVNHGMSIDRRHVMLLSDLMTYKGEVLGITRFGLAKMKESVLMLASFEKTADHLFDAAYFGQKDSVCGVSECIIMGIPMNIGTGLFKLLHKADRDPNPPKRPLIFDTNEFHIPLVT

The other results are listed elsewhere or left out. Most values lie at the level of the controls, where differences are scatter.

Compound in the experiment: Cc1nc(Nc2ncc(C(=O)Nc3c(C)cccc3Cl)s2)cc(N2CCN(CCO)CC2)n1 [dasatinib]
The experiment is described as follows: log2 fold change of tryptic peptide abundance, ligand vs vehicle (limited proteolysis) (log2 ratio); higher = more trypsin-susceptible (destabilized). Conditions: ligand concentration: 5 uM; sample: K562 cleared lysate.
Consider “SLC27A2 (peptide sequence: KLFQHIADYLPSYARPR, peptide start residue: 541) (UniProt O14975)”, for which the log2 fold change is -0.408. The value for “CASC3 (peptide sequence: WEHDKFR, peptide start residue: 218) (UniProt O15234)” was 0.46. Take “CIT (peptide sequence: KDLADKETLENMMQR, peptide start residue: 734) (UniProt O14578)”: the log2 fold change was -0.741. With “PRMT5 (peptide sequence: QGFDFLCMPVFHPR, peptide start residue: 36) (UniProt O14744)” the figure was 0.301. Regarding “DDX3X (peptide sequence: EATKGFYDKDSSGWSSSK, peptide start residue: 47) (UniProt O00571)”, the log2 fold change was -0.987. With “APAF1 (peptide sequence: AHEDEVLCCAFSTDDR, peptide start residue: 655) (UniProt O14727)” the figure was -0.893; with “UniProt O00487 (peptide sequence: SWMEGLTLQDYSEHCK, peptide start residue: 224)”, 0.128; with “UniProt O14965 (peptide sequence: QWALEDFEIGRPLGK, peptide start residue: 127)”, -0.311. As for “VWA5A (peptide sequence: DVPRPILLGASAPLK, peptide start residue: 607) (UniProt O00534)”, the log2 fold change is 0.177. With “POLR3A (peptide sequence: NICHHCGAFNGTVK, peptide start residue: 154) (UniProt O14802)” the figure was -0.17.
